According to patent publication US8114832:
No constants are given. Whether binding was seen depends on the method and setting. Some results given as binding are weak or reduced against the parent protein; the word gives no strength.

The chains behind the UniProt entries cited, without tags or fusion partners. Residues count along the entry.
UniProt P02769, residues 25-607: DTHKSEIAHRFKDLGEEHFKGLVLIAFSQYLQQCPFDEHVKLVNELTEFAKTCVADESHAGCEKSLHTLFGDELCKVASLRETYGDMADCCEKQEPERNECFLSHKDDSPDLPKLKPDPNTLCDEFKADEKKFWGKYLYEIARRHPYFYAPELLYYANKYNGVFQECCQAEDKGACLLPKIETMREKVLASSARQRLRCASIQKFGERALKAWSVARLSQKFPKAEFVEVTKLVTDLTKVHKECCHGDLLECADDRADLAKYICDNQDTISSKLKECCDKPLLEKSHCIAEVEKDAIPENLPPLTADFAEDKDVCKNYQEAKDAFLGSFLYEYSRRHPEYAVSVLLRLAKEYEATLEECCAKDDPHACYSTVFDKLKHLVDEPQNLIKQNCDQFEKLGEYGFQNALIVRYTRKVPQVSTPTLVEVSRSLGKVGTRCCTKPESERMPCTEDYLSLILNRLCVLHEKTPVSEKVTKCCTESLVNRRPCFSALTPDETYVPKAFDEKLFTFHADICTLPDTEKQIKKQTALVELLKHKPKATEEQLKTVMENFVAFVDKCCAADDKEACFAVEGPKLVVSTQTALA
UniProt P00750, residues 36-562: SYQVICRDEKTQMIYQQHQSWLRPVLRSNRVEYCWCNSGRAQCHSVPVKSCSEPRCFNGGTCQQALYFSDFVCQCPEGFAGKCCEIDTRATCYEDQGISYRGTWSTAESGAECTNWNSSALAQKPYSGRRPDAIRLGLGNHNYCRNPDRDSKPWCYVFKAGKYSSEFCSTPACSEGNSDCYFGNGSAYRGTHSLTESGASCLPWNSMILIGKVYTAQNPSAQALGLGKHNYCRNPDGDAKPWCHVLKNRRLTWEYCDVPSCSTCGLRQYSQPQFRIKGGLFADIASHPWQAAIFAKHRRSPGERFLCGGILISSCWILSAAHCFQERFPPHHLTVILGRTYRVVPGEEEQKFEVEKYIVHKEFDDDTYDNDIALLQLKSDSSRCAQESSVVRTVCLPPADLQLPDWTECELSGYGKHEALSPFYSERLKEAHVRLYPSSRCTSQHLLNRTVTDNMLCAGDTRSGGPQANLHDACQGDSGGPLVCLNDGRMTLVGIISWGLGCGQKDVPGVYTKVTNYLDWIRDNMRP

What was measured:
[1] = molecular target: advanced glycation end-product (AGE)-modified bovine serum albumin (bovine) (UniProt P02769); test: SPR (Biacore), tPA immobilized
[2] = molecular target: advanced glycation end-product (AGE)-modified bovine serum albumin (bovine) (UniProt P02769); test: SPR (Biacore), tPA immobilized, albumin-AGE injected at 3.9 µg/ml

What does the source list for “tissue-type plasminogen activator (tPA) (from UniProt P00750 36-562) (enzyme)”?
binding [1]: binds; binding [2]: binds
